PubChem BioAssay AID652106 (National Center for Advancing Translational Sciences (NCATS), 2013)
Among all 370,000 compounds or so, about 500 (0.14%) were called active. The source calls these results inconclusive, neither active nor inactive. Calls come from the whole dose curve; as a rule, active = well fitted activation curve with a large enough effect; inconclusive = small, poorly fitted or top-dose-only effect; inactive = no such curve, though single readings can be large or run the other way.

Experiment: qHTS of alpha-syn Inhibitors; note: nearly all actives have a fitted effect of over 65% in size
Conditions: Yeast expressing alpha-synuclein, growth rescue, BacTiter-Glo, 24 h
Description: The goal of this project is to identify new chemical probes capable of reversing the toxicity associated with the Parkinson disease-related protein, alpha-synuclein. Compounds will be selected on their ability to restore growth in yeast cells expressing toxic levels of alpha-synuclein. These compounds will provide a complementary approach to deciphering the tangled mechanisms of toxicity and protection that we have uncovered through genome-wide genetic screens and are beginning to uncover in a large-scale proteomics analysis with mass spectroscopy. To this end, a miniaturized assay was developed to be screened against the Molecular Libraries Small Molecule Repository (MLSMR) to discover alpha-synuclein inhibitors. Please note that in the set-up this yeast-based assay compounds that inhibit as alpha-syn, have a read-out as activators. NIH Chemical Genomics Center [NCGC] NIH Molecular Libraries Probe Centers Network [MLPCN] MLPCN Grant: NS060957 Assay Submitter (PI): Susan Lindquist, Whitehead Institute/MIT
Dispense 2.5 microL yeast galactose medium per 1536-well plate, pin compound, dispense 2.5 microL alpha-synuclein expressing yeast in galactose medium at OD600=0.02 (pregrown in raffinose medium to mid-log phase) per well, incubate for 24 hr at 30 deg C, and cell growth will be measured using 5 microL of Bactiter/Glo reagent to entire plate and read using Luminescence Protocol in ViewLux.
Potency is the fitted concentration of half-maximal effect.

Compound | Potency
Cc1cc(C)cc(OP(C)(=O)Nc2ccc(C)cc2C)c1 (stereo not drawn) | inconclusive: 35.5 µM
CC(C)c1ccc(OP(C)(=O)Nc2ccc(SC(F)(F)F)cc2)cc1 (stereo not drawn) | inconclusive: 17.8 µM
O=[N+]([O-])c1cc([N+](=O)[O-])c(C(F)(F)F)c([N+](=O)[O-])c1O | inconclusive: 35.5 µM
